Test results published in article PMC7261183.
Results are given in words; binding and its absence hold for the method and conditions named. In cells and extracts the contact can be indirect. Some binding calls cover weakened binding; strength is not graded here. Where a sequence is shown, tags or fusion partners need not be part of it.

B1: EcoKI M subunit (protein, UniProt P08957 1-529)
chain: MNNNDLVAKLWKLCDNLRDGGVSYQNYVNELASLLFLKMCKETGQEAEYLPEGYRWDDLKSRIGQEQLQFYRKMLVHLGEDDKKLVQAVFHNVSTTITEPKQITALVSNMDSLDWYNGAHGKSRDDFGDMYEGLLQKNANETKSGAGQYFTPRPLIKTIIHLLKPQPREVVQDPAAGTAGFLIEADRYVKSQTNDLDDLDGDTQDFQIHRAFIGLELVPGTRRLALMNCLLHDIEGNLDHGGAIRLGNTLGSDGENLPKAHIVATNPPFGSAAGTNITRTFVHPTSNKQLCFMQHIIETLHPGGRAAVVVPDNVLFEGGKGTDIRRDLMDKCHLHTILRLPTGIFYAQGVKTNVLFFTKGTVANPNQDKNCTDDVWVYDLRTNMPSFGKRTPFTDEHLQPFERVYGEDPHGLSPRTEGEWSFNAEETEVADSEENKNTDQHLATSRWRKFSREWIRTAKSDSLDISWLKDKDSIDADSLPEPDVLAAEAMGELVQALSELDALMRELGASDEADLQRQLLEEAFGGVKE
B2: EcoKI S subunit (protein, UniProt P05719 1-464)
chain: MSAGKLPEGWVIAPVSTVTTLIRGVTYKKEQAINYLKDDYLPLIRANNIQNGKFDTTDLVFVPKNLVKESQKISPEDIVIAMSSGSKSVVGKSAHQHLPFECSFGAFCGVLRPEKLIFSGFIAHFTKSSLYRNKISSLSAGANINNIKPASFDLINIPIPPLAEQKIIAEKLDTLLAQVDSTKARFEQIPQILKRFRQAVLGGAVNGKLTEKWRNFEPQHSVFKKLNFESILTELRNGLSSKPNESGVGHPILRISSVRAGHVDQNDIRFLECSESELNRHKLQDGDLLFTRYNGSLEFVGVCGLLKKLQHQNLLYPDKLIRARLTKDALPEYIEIFFSSPSARNAMMNCVKTTSGQKGISGKDIKSQVVLLPPVKEQAEIVRRVEQLFAYADTIEKQVNNALARVNNLTQSILAKAFRGELTAQWRAENPDLISGENSAAALLEKIKAERAASGGKKASRKKS

Target: T1, wild-type Ocr with C-terminal Strep-tag II (bacteriophage T7) (UniProt P03775)
T1 sequence: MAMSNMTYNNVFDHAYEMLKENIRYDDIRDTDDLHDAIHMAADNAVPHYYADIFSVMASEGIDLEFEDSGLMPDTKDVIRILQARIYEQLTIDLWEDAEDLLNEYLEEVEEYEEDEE
Assay: pull-down; Strep-tagged protein and candidate partner produced in E. coli BW25113 from compatible plasmids (BREX- or BREX+ cells); clarified lysate on a StrepTrap HP column, washed with buffer A (150 mM NaCl, 1 mM EDTA, 100 mM Tris-HCl pH 8.0), eluted with desthiobiotin; SDS-PAGE, bands identified by MALDI-TOF mass spectrometry

Binder | binding
B1 | binds
B2 | binds
